PubChem BioAssay AID743121 | NCATS | 2013
Shown is an unselected part of about 26,000 deposited reagents. Of all reagents, 167 (0.63%) were called active. 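Calls are per gene from RSA p-values that are not deposited; an individual active-marked siRNA can sensitise only weakly.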 Entries without a mark were called inactive.

- Aim: 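Genes whose silencing strengthens cell killing by camptothecin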 (primary screen)
- Cell system: MDA-MB-231 cells, a human breast cancer line
- Knock-down reagent: single siRNA against human genes, 20 nM siRNA (0.8 pmol per well)
- Duration: 120 h (drug added 48 h after transfection, read 72 h later)
- Challenge: camptothecin 20 nM (about EC30) for 72 h; vehicle 0.1% DMSO in parallel plates
- Measured: 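CellTiter-Glo ATP signal, scaled to control siRNA as percent viability; sensitisation given as log2 of untreated divided by camptothecin-treated viability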
- Scale: log2 vehicle/camptothecin viability: higher = stronger sensitisation to camptothecin; viability with camptothecin and viability without drug: higher = more viable cells
- Call rule: 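Active genes have an RSA gene-level p-value below 0.001, computed from the ratios of their separate siRNAs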

gene symbol | PubChem SID | log2 vehicle/camptothecin viability | viability with camptothecin (% of control) | viability without drug (% of control)
RIOK1 (RIO kinase 1) | SID164541445 | -0.141 | 102 | 92.9
RIOK1 (RIO kinase 1) | SID164541446 | -0.471 | 93 | 67.1
RIOK1 (RIO kinase 1) | SID164541449 | -0.45 | 104 | 76.4
RIOK1 (RIO kinase 1) | SID164541450 | -0.606 | 55.1 | 36.2
ADAM17 (ADAM metallopeptidase domain 17) | SID164390629 | -1.34 | 41.5 | 16.3
ADAM17 (ADAM metallopeptidase domain 17) | SID164390633 | -0.253 | 93.7 | 78.6
ADAM17 (ADAM metallopeptidase domain 17) | SID164390634 | 0.00528 | 87.7 | 88
TNFAIP2 (TNF alpha induced protein 2) | SID164392191 | -0.195 | 101 | 88.4
TNFAIP2 (TNF alpha induced protein 2) | SID164392193 | -0.106 | 53.2 | 49.4
TNFAIP2 (TNF alpha induced protein 2) | SID164392195 | -0.551 | 53.9 | 36.8
TNFAIP2 (TNF alpha induced protein 2) | SID164392198 | -0.0531 | 123 | 118
CDH2 (cadherin 2) | SID164357612 | 0.19 | 52.1 | 59.4
CDH2 (cadherin 2) | SID164357613 | -0.324 | 111 | 88.8
CDH2 (cadherin 2) | SID164357616 | -0.486 | 77.4 | 55.2
SLC3A1 | SID164388268 | -0.274 | 74 | 61.2
SLC3A1 | SID164388270 | 0.224 | 77.1 | 90.1
SLC3A1 | SID164388271 | -0.354 | 40.1 | 31.4
SLC3A1 | SID164388273 | -0.0759 | 84.1 | 79.8
USP34 (ubiquitin specific peptidase 34) | SID164405911 | -0.273 | 40.3 | 33.4
USP34 (ubiquitin specific peptidase 34) | SID164405912 | -0.0364 | 91.7 | 89.4
USP34 (ubiquitin specific peptidase 34) | SID164405915 | 0.632 | 52.4 | 81.3
USP34 (ubiquitin specific peptidase 34) | SID164405917 | 0.0569 | 95.4 | 99.2
MAST2 (microtubule associated serine/threonine kinase 2) | SID164445882 | 0.014 | 81.3 | 82.1
MAST2 (microtubule associated serine/threonine kinase 2) | SID164445884 | -0.396 | 93.6 | 71.2
MAST2 (microtubule associated serine/threonine kinase 2) | SID164445885 | 0.243 | 52.5 | 62.1
MAST2 (microtubule associated serine/threonine kinase 2) | SID164445888 | 0.19 | 46.8 | 53.4
BCL9 (BCL9 transcription coactivator) | SID164355169 | -0.0864 | 81.7 | 77
BCL9 (BCL9 transcription coactivator) | SID164355170 | -0.365 | 100 | 77.9
BCL9 (BCL9 transcription coactivator) | SID164355174 | -0.0747 | 109 | 103
BCL9 (BCL9 transcription coactivator) | SID164355175 | -0.068 | 80.2 | 76.5
CAPN2 (calpain 2) | SID164356469 | -0.137 | 75.8 | 68.9
CAPN2 (calpain 2) | SID164356471 | 0.13 | 66.7 | 73
CAPN2 (calpain 2) | SID164356473 | 0.299 | 18.4 | 22.7
THBD (thrombomodulin) | SID164391709 | -0.426 | 127 | 94.2
THBD (thrombomodulin) | SID164391711 | -0.264 | 90.3 | 75.2
THBD (thrombomodulin) | SID164391712 | -0.0111 | 55.8 | 55.4
THBD (thrombomodulin) | SID164391713 | -0.227 | 17.9 | 15.3
TMPRSS11D (transmembrane serine protease 11D) | SID164403590 | 0.683 | 30.8 | 49.4
TMPRSS11D (transmembrane serine protease 11D) | SID164403592 | -0.0452 | 50.1 | 48.5
TMPRSS11D (transmembrane serine protease 11D) | SID164403593 | -0.482 | 71.2 | 51
TMPRSS11D (transmembrane serine protease 11D) | SID164403594 | 0.232 | 61.9 | 72.7
SLC6A19 | SID164658064 | -0.92 | 72.8 | 38.5
SLC6A19 | SID164658067 | -0.0485 | 98.4 | 95.2
SLC6A19 | SID164658068 | 0.115 | 37.4 | 40.5
SLC6A19 | SID164658071 | -0.313 | 126 | 101
CD160 (CD160 molecule) | SID164415728 | -0.607 | 56.9 | 37.4
CD160 (CD160 molecule) | SID164415729 | -0.264 | 78.5 | 65.4
CD160 (CD160 molecule) | SID164415730 | 0.215 | 86.3 | 100
CD160 (CD160 molecule) | SID164415731 | -0.172 | 37 | 32.8
ASCL2 (achaete-scute family bHLH transcription factor 2) | SID164354286 | -0.566 | 88.4 | 59.7
ASCL2 (achaete-scute family bHLH transcription factor 2) | SID164354287 | -0.0267 | 103 | 101
ASCL2 (achaete-scute family bHLH transcription factor 2) | SID164354288 | -0.172 | 95.3 | 84.6
ASCL2 (achaete-scute family bHLH transcription factor 2) | SID164354290 | -0.213 | 81.8 | 70.6
TESMIN (testis expressed metallothionein like protein) | SID164405001 | 0.23 | 60.7 | 71.2
TESMIN (testis expressed metallothionein like protein) | SID164405002 | 0.788 | 34.7 | 59.9
TESMIN (testis expressed metallothionein like protein) | SID164405004 | 0.158 | 89.5 | 99.9
GABRA3 (gamma-aminobutyric acid type A receptor subunit alpha3) | SID164365698 | -0.276 | 63.9 | 52.8
GABRA3 (gamma-aminobutyric acid type A receptor subunit alpha3) | SID164365700 | 0.11 | 27.3 | 29.5
GABRA3 (gamma-aminobutyric acid type A receptor subunit alpha3) | SID164365702 | 0.232 | 71 | 83.4
SLIT2 (slit guidance ligand 2) | SID164403251 | -0.143 | 97.5 | 88.3
SLIT2 (slit guidance ligand 2) | SID164403252 | 0.0487 | 84.7 | 87.6
SLIT2 (slit guidance ligand 2) | SID164403253 | -0.34 | 102 | 80.7
SLIT2 (slit guidance ligand 2) | SID164403254 | 0.0693 | 95.7 | 100
UBE2G2 (ubiquitin conjugating enzyme E2 G2) | SID164393223 | -0.0559 | 112 | 108
UBE2G2 (ubiquitin conjugating enzyme E2 G2) | SID164393224 | -0.106 | 94 | 87.3
UBE2G2 (ubiquitin conjugating enzyme E2 G2) | SID164393227 | 0.0266 | 92.4 | 94.1
UBE2G2 (ubiquitin conjugating enzyme E2 G2) | SID164393229 | -0.285 | 84.6 | 69.4
TMEM147 (transmembrane protein 147) | SID164410942 | -0.329 | 79 | 62.9
TMEM147 (transmembrane protein 147) | SID164410943 | -0.0806 | 56.8 | 53.7
TMEM147 (transmembrane protein 147) | SID164410946 | -0.56 | 117 | 79.7
TMEM147 (transmembrane protein 147) | SID174315936 | -0.287 | 110 | 89.9
HERC1 | SID164400776 | 0.00474 | 115 | 115
HERC1 | SID164400778 | -0.31 | 69 | 55.6
HERC1 | SID164400779 | 0.0102 | 87.7 | 88.3
HERC1 | SID164400781 | -0.0238 | 101 | 99.4
PARP3 (poly(ADP-ribose) polymerase family member 3) | SID164408205 | -0.293 | 95.2 | 77.7
PARP3 (poly(ADP-ribose) polymerase family member 3) | SID164408207 | -0.147 | 64.7 | 58.4
PARP3 (poly(ADP-ribose) polymerase family member 3) | SID164408209 | -0.234 | 73.8 | 62.8
PARP3 (poly(ADP-ribose) polymerase family member 3) | SID164408210 | 0.216 | 42.7 | 49.6
RAD51D (RAD51 paralog D) | SID164384551 | -0.369 | 118 | 91.1
RAD51D (RAD51 paralog D) | SID164384553 | -0.817 | 23.7 | 13.4
RAD51D (RAD51 paralog D) | SID164384555 | 0.0413 | 58.6 | 60.3
RAD51D (RAD51 paralog D) | SID164384556 | 0.0671 | 38.8 | 40.6
HECW2 | SID164494623 | -0.538 | 89.6 | 61.7
HECW2 | SID164494625 | 0.316 | 48.2 | 60
HECW2 | SID164494628 | -0.0463 | 97.2 | 94.1
TXNRD2 (thioredoxin reductase 2) | SID164412145 | -0.0507 | 96.6 | 93.3
TXNRD2 (thioredoxin reductase 2) | SID164412146 | -0.0267 | 101 | 99.1
TXNRD2 (thioredoxin reductase 2) | SID164412147 | -0.269 | 98.3 | 81.5
TXNRD2 (thioredoxin reductase 2) | SID164412150 | -0.477 | 51.7 | 37.1
